Results from patent publication US8957082B2, “Tetrahydropyrrolopyrimidinediones and their use in therapy” (Chiesi Farmaceutici S.p.A, priority 2006, dated 2015).
At least one compound was matched to its structure with a doubt left. Some compounds share one wording; it may come from a single statement.

Target: T1, human neutrophil elastase (HNE) (Homo sapiens, UniProt P08246)
T1 sequence (P08246 30-267): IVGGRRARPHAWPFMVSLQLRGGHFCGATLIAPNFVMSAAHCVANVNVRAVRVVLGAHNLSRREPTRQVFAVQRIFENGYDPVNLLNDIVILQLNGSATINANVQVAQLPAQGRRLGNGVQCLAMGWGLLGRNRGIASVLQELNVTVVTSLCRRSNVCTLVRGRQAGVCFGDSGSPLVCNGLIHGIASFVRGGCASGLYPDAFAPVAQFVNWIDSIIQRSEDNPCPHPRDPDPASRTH
Assay: HNE induced lung haemorrhage in the rat
Format: in vivo
Conditions: male Sprague Dawley rats, compound dosed locally to the lung (i.t. or i.n.) before HNE, blood in BALF one hour post HNE challenge
Source text: HNE Induced Lung Haemorrhage in the Rat
Instillation of human neutrophil elastase (HNE) into rat lung causes acute lung damage. The extent of this injury can be assessed by measuring lung haemorrhage. Male Sprague Dawley rats (175-220 g) were obtained from Harlan UK Ltd., full barrier-bred and certified free from specified micro-organisms on receipt. Animals were weighed and randomly assigned to treatment groups (7-12 animals per group).
The vehicle used was 1% DMSO/Saline. Inhibitors were dissolved in 1% DMSO before the addition of 0.9% saline.
Animals in each study used to determine the efficacy of the elastase inhibitors delivered locally to the lung by a variety of routes. […]
Once defrosted 100 μl of each lysed cell suspension was placed into a separate well of a 96 well flat bottomed plate. […] The OD of the contents of each well was measured at 415 nm using a spectramax 250 (Molecular devices). […]
The amount of blood in each experimental sample was calculated by comparison to the standard curve. Data were then analysed as below:
1) The mean OD for duplicates was calculated […]
3) Data were assessed to evaluate the normality of distribution.

Compound | reducing the quantity of blood haemorrhaged relative to control
CCN1CC2=C(C1=O)[C@@H](c1ccc(C#N)cc1)N(CCCn1cc[n+](CCCN3C(=O)N(c4cccc(C(F)(F)F)c4)C4=C(C(=O)N(CC)C4)[C@H]3c3ccc(C#N)cc3)c1)C(=O)N2c1cccc(C(F)(F)F)c1 [Example 27] | effective in reducing the quantity of blood haemorrhaged
CN(CCCN1C(=O)N(c2cccc(C(F)(F)F)c2)C2=C(C(=O)N(CC[N+](C)(C)C)C2)[C@H]1c1ccc(C#N)cc1)CCCN1C(=O)N(c2cccc(C(F)(F)F)c2)C2=C(C(=O)N(CC[N+](C)(C)C)C2)[C@H]1c1ccc(C#N)cc1 [Example 40] | effective in reducing the quantity of blood haemorrhaged
